In paper PMC2568807:
Results are given in words; binding and its absence hold for the method and conditions named. In cells and extracts the contact can be indirect. Some binding calls cover weakened binding; strength is not graded here.

Amino acid sequences for entries named in this document (tags omitted).
UniProt A0ACI6NKV9: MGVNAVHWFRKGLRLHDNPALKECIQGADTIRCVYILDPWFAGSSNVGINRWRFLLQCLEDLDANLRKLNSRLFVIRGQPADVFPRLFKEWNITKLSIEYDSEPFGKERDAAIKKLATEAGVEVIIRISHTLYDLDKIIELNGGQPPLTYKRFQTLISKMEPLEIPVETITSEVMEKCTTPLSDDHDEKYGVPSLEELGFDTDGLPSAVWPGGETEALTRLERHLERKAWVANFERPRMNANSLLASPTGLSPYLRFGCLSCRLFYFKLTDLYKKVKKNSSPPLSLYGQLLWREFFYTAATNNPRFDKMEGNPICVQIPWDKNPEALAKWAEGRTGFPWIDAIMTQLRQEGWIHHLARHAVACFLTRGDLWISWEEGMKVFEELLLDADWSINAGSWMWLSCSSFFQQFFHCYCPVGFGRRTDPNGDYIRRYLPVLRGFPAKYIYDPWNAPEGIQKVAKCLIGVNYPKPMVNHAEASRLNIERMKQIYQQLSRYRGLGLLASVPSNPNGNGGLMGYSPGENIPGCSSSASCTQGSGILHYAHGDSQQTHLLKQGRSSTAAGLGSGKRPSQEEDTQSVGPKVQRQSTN

Target: T1, mouse Fbxl21 (mouse) (UniProt Q8BFZ4)
T1 sequence: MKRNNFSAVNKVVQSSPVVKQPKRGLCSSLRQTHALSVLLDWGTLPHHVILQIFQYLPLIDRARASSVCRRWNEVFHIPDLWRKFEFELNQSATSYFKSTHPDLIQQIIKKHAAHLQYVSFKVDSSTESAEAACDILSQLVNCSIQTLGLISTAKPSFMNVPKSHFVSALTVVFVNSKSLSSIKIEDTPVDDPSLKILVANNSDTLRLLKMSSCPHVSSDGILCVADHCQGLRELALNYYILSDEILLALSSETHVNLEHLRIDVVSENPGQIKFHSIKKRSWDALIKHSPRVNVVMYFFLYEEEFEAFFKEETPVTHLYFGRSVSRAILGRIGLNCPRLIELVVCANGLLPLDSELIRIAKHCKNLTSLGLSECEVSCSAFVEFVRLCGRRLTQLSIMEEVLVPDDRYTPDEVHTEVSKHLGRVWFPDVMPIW
Assay: co-IP; COS7 cells co-transfected with Myc-Fbxl and Flag-Cry1 vectors, harvested 48 h post-transfection in IP buffer (150 mM NaCl, 5 mM EDTA, 0.5% Nonidet P40, 50 mM Tris pH 7.8); supernatant incubated overnight at 4°C with anti-Myc affinity resin; Western blot with anti-Myc or anti-Flag

binding: binds
Substance: ovine CRY1 (Cryptochrome 1), Flag-tagged (from UniProt A0ACI6NKV9 1-587)
